Data as given in PubChem BioAssay AID504764 (Drosophila RNAi Screening Center, 2011)

Aim: 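Genome-wide screen for regulators of Notch-driven gene expression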 (primary screen)
System: Drosophila Kc167 cells
Reagents: long dsRNA against Drosophila genes
Timing: about 5 days (4 days dsRNA, then 24 h after transfection)
Treatment: transfection of constitutively active membrane-tethered Notch lacking the extracellular domain, read 24 h later
Detection: 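Light from a Notch-responsive E(spl)m3 luciferase reporter under active Notch, with control-promoter and no-Notch reporter wells to normalise; raw counts from paired wells a and b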
Reading the numbers: induced reporter light, run 1, well a and induced reporter light, run 1, well b: higher = more light from the Notch target reporter with active Notch; control promoter light, run 1, well a and control promoter light, run 1, well b: higher = more light from the viral control promoter (cell number, transfection, viability); uninduced reporter light, run 1, well a: higher = more light from the Notch target reporter without active Notch
Hit rule: 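Hit if the duplicate-averaged log2 ratio of induced to control-promoter light gives a plate-wise z beyond ±2, or induced to uninduced beyond ±1.8; weak-control or discordant-duplicate wells dropped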
Calls: active = modifier hit (raised or lowered Notch signal); inactive = not a hit
In all, the deposit lists about 22,000 reagents; this is a random part of those that have a named target and a result. Of all reagents, 403 (1.9%) got an active call. 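Unnormalised raw counts per well; ratio z-scores behind the hit calls and whether each hit raises or lowers signal are not deposited.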 The numbers tell different reagents against one gene apart. Not stated in the record: the amount of reagent.

| target | reagent no. | induced reporter light, run 1, well a | induced reporter light, run 1, well b | control promoter light, run 1, well a | control promoter light, run 1, well b | uninduced reporter light, run 1, well a | call |
| --- | --- | --- | --- | --- | --- | --- | --- |
| eas | 1 | 64440 | 61035 | 76840 | 47565 | 9678 | inactive |
| Vps60 | 1 | 1.46e5 | 1.34e5 | 1.51e5 | 1.44e5 | 7035 | inactive |
| alphaTub84D | 1 | 17905 | 19690 | 18495 | 17710 | 1825 | inactive |
| CG2258 | 1 | 2.74e5 | 2.41e5 | 3.90e5 | 3.78e5 | 15865 | inactive |
| CG4438 | 1 | 1.02e5 | 1.31e5 | 61745 | 82740 | 17200 | inactive |
| CG17564 | 1 | 34995 | 29175 | 34515 | 31580 | 3585 | inactive |
| CG10013 | 1 | 1.34e5 | 1.17e5 | 79575 | 87920 | 9420 | inactive |
| Mi-2 | 1 | 12790 | 15750 | 10835 | 10265 | 1380 | inactive |
| SCCRO3 | 1 | 67035 | 84405 | 87935 | 1.04e5 | 5378 | inactive |
| HDAC3 | 1 | 1.64e5 | 1.58e5 | 93545 | 83730 | 16000 | inactive |
| CG1889 | 1 | 1.91e5 | 1.88e5 | 2.28e5 | 2.33e5 | 12380 | inactive |
| sim | 1 | 2.86e5 | 2.84e5 | 2.36e5 | 2.43e5 | 22795 | inactive |
| Karl | 1 | 1.95e5 | 1.87e5 | 2.32e5 | 1.99e5 | 12025 | inactive |
| hts | 1 | 1.21e5 | 76260 | 1.14e5 | 75400 | 8840 | inactive |
| ppk30 | 1 | 1.38e5 | 1.30e5 | 1.67e5 | 1.35e5 | 11415 | inactive |
| Usp30 | 1 | 1.48e5 | 1.55e5 | 3.05e5 | 2.47e5 | 11755 | inactive |
| CG3589 | 1 | 1.90e5 | 1.56e5 | 1.69e5 | 1.66e5 | 12635 | inactive |
| CG11127 | 1 | 1.47e5 | 1.71e5 | 1.48e5 | 1.45e5 | 11435 | inactive |
| CycD | 1 | 32685 | 32695 | 33525 | 25870 | 4225 | inactive |
| CG32037 | 1 | 1.80e5 | 2.17e5 | 2.42e5 | 2.12e5 | 11935 | inactive |
| c-cup | 1 | 1.28e5 | 1.16e5 | 1.29e5 | 1.02e5 | 11520 | inactive |
| CG12104 | 1 | 74795 | 87030 | 1.15e5 | 1.43e5 | 7080 | inactive |
| CG10581 | 1 | 1.85e5 | 1.06e5 | 1.24e5 | 1.10e5 | 11790 | inactive |
| CG3123 | 1 | 1.23e5 | 1.28e5 | 1.24e5 | 1.06e5 | 10695 | inactive |
| CG13311 | 1 | 2.36e5 | 1.74e5 | 3.09e5 | 2.76e5 | 11115 | inactive |
| rdx | 1 | 37215 | 41260 | 26980 | 27595 | 7020 | inactive |
| rdx | 2 | 2.66e5 | 2.64e5 | 1.83e5 | 1.78e5 | 22890 | inactive |
| CG3288 | 1 | 1.21e5 | 99390 | 94755 | 1.04e5 | 7780 | inactive |
| Vamp7 | 1 | 1.59e5 | 1.45e5 | 2.35e5 | 1.90e5 | 15100 | inactive |
| CG1523 | 1 | 1.60e5 | 1.54e5 | 1.96e5 | 2.33e5 | 10220 | inactive |
| timeout | 1 | 1.28e5 | 1.67e5 | 1.79e5 | 1.49e5 | 11925 | inactive |
| timeout | 2 | 2.45e5 | 2.51e5 | 2.21e5 | 2.23e5 | 17740 | inactive |
| timeout | 3 | 2.23e5 | 2.42e5 | 1.92e5 | 1.90e5 | 16525 | inactive |
| timeout | 4 | 2.76e5 | 3.21e5 | 2.43e5 | 2.38e5 | 20405 | inactive |
| timeout | 5 | 2.75e5 | 2.74e5 | 2.47e5 | 2.29e5 | 22490 | inactive |

A stretch taken from the entries so far:
| target | reagent no. | induced reporter light, run 1, well a | induced reporter light, run 1, well b | control promoter light, run 1, well a | control promoter light, run 1, well b | uninduced reporter light, run 1, well a | call |
| --- | --- | --- | --- | --- | --- | --- | --- |
| sim | 1 | 2.86e5 | 2.84e5 | 2.36e5 | 2.43e5 | 22795 | inactive |
| Karl | 1 | 1.95e5 | 1.87e5 | 2.32e5 | 1.99e5 | 12025 | inactive |
| hts | 1 | 1.21e5 | 76260 | 1.14e5 | 75400 | 8840 | inactive |
| ppk30 | 1 | 1.38e5 | 1.30e5 | 1.67e5 | 1.35e5 | 11415 | inactive |
| Usp30 | 1 | 1.48e5 | 1.55e5 | 3.05e5 | 2.47e5 | 11755 | inactive |
